Read-outs that look alike come from different tables or passages of the source. Results are given in words; binding and its absence hold for the method and conditions named. In cells and extracts the contact can be indirect. Some binding calls cover weakened binding; strength is not graded here. For some assays here: Sequences can lack the tags named with a protein. Each block holds one molecule with its values, some of them ahead of it.
How the values were obtained:
FLAG-tagged MLL5 (human) [1] = molecular target: FLAG-tagged MLL5 (human) (UniProt Q8IZD2); experiment: co-IP; HEK293T cotransfected with tagged plasmids, whole-cell extracts 48 h after transfection; lysis buffer 1% NP-40, 20 mM HEPES, 20 mM KCl, 150 mM NaCl, 5 mM EDTA, pH 7.4; Protein-G Sepharose with anti-FLAG or anti-V5, 4 °C; in Fig. 6b also with MLL5-HA plasmid (0, 1000, 3000 ng)
FLAG-tagged MLL5 (human) [2] = molecular target: FLAG-tagged MLL5 (human) (UniProt Q8IZD2); experiment: as above; remark: listed apart in the source

Amino acid sequences for entries named in this document (tags omitted).
UniProt Q8IZD2: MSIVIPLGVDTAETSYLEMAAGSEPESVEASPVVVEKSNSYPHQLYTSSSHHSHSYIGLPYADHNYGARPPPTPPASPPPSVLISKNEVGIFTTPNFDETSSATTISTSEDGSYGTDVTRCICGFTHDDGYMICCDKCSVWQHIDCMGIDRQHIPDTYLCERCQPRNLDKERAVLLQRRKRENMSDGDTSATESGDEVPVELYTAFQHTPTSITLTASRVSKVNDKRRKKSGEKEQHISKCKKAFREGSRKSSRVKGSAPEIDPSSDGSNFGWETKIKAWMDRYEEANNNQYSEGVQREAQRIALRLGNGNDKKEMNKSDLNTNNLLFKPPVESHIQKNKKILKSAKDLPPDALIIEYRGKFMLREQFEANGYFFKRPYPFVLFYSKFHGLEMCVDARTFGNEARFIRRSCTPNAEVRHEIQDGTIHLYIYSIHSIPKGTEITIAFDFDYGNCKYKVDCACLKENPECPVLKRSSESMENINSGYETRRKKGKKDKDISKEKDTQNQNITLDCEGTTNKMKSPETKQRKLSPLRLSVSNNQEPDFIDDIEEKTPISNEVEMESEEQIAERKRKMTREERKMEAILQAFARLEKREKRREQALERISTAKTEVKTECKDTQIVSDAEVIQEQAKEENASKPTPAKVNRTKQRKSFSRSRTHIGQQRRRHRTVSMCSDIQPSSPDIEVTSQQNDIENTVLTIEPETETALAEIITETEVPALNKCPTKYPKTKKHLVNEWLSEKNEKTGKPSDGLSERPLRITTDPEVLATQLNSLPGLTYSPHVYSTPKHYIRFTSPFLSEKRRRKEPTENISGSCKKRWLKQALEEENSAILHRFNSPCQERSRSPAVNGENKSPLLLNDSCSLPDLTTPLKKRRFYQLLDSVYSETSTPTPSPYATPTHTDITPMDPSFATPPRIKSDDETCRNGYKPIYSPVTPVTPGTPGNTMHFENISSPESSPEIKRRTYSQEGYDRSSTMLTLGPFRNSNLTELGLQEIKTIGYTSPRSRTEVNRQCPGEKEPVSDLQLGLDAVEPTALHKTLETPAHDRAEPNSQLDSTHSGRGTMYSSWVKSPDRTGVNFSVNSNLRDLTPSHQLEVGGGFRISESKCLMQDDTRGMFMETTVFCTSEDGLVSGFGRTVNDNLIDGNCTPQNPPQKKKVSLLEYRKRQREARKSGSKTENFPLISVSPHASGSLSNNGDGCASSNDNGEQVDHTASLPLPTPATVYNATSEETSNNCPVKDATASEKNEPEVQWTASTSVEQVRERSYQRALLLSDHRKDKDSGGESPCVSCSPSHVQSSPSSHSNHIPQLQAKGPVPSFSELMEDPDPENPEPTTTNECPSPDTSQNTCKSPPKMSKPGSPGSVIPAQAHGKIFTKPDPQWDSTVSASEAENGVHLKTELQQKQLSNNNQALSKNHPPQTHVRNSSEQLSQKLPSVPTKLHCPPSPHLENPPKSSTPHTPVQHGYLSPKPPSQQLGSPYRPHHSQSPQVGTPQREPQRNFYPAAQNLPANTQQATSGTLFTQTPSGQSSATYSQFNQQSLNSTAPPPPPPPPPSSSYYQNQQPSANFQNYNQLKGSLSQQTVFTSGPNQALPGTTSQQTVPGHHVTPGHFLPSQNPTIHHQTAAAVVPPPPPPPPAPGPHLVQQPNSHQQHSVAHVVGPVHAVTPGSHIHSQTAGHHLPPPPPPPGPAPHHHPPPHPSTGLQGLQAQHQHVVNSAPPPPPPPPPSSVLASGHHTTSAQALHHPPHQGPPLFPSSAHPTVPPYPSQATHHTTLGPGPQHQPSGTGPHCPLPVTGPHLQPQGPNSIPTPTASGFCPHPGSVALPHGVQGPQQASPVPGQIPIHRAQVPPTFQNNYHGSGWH
UniProt Q9UNE7: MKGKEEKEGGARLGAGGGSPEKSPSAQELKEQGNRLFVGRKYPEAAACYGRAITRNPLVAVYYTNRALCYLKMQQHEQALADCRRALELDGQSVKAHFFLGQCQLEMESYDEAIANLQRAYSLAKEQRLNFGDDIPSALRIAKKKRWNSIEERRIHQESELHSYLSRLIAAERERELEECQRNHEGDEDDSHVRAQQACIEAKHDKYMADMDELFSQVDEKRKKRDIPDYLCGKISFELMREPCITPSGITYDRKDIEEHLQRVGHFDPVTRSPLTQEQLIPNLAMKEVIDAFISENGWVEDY

binding (FLAG-tagged MLL5 (human) [1]): binds
Molecule: V5-tagged STUB1 (from UniProt Q9UNE7 1-303) (enzyme)

binding (FLAG-tagged MLL5 (human) [2]): binds
B1: RIG-I-HA (protein, UniProt O95786 1-925)
chain: MTTEQRRSLQAFQDYIRKTLDPTYILSYMAPWFREEEVQYIQAEKNNKGPMEAATLFLKFLLELQEEGWFRGFLDALDHAGYSGLYEAIESWDFKKIEKLEEYRLLLKRLQPEFKTRIIPTDIISDLSECLINQECEEILQICSTKGMMAGAEKLVECLLRSDKENWPKTLKLALEKERNKFSELWIVEKGIKDVETEDLEDKMETSDIQIFYQEDPECQNLSENSCPPSEVSDTNLYSPFKPRNYQLELALPAMKGKNTIICAPTGCGKTFVSLLICEHHLKKFPQGQKGKVVFFANQIPVYEQQKSVFSKYFERHGYRVTGISGATAENVPVEQIVENNDIIILTPQILVNNLKKGTIPSLSIFTLMIFDECHNTSKQHPYNMIMFNYLDQKLGGSSGPLPQVIGLTASVGVGDAKNTDEALDYICKLCASLDASVIATVKHNLEELEQVVYKPQKFFRKVESRISDKFKYIIAQLMRDTESLAKRICKDLENLSQIQNREFGTQKYEQWIVTVQKACMVFQMPDKDEESRICKALFLYTSHLRKYNDALIISEHARMKDALDYLKDFFSNVRAAGFDEIEQDLTQRFEEKLQELESVSRDPSNENPKLEDLCFILQEEYHLNPETITILFVKTRALVDALKNWIEGNPKLSFLKPGILTGRGKTNQNTGMTLPAQKCILDAFKASGDHNILIATSVADEGIDIAQCNLVILYEYVGNVIKMIQTRGRGRARGSKCFLLTSNAGVIEKEQINMYKEKMMNDSILRLQTWDEAVFREKILHIQTHEKFIRDSQEKPKPVPDKENKKLLCRKCKALACYTADVRVIEECHYTVLGDAFKECFVSRPHPKPKQFSSFEKRAKIFCARQNCSHDWGIHVKYKTFEIPVIKIESFVVEDIATGVQTLYSKWKDFHFEKIPFDPAEMSK

From article PMC5871759
